Values from PubChem BioAssay AID743121 (NCATS, 2013)

- Assay: 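Knock-downs that sensitise breast cancer cells to camptothecin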 (primary screen)
- Cell system: MDA-MB-231 cells, a human breast cancer line
- Reagents: single siRNA against human genes, 20 nM siRNA (0.8 pmol per well)
- Timing: 120 h (drug added 48 h after transfection, read 72 h later)
- Treatment: camptothecin 20 nM (about EC30) for 72 h; vehicle 0.1% DMSO in parallel plates
- Read-out: 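Cell viability by ATP luminescence (CellTiter-Glo) as % of non-targeting siRNA wells, and the log2 ratio of viability without drug over viability with camptothecin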
- Direction: log2 vehicle/camptothecin viability: higher = stronger sensitisation to camptothecin; viability with camptothecin and viability without drug: higher = more viable cells
- Active means: 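Each gene scored by redundant siRNA activity (RSA) over its individual siRNA ratios; a gene is called active at p < 0.001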
This is an unselected part of about 26,000 deposited reagents. Over the whole deposit, 167 (0.63%) were called active. 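Calls are per gene from RSA p-values that are not deposited; an individual active-marked siRNA can sensitise only weakly.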 Entries without a mark were called inactive. The numbers tell different reagents against one gene apart.

target gene	reagent	log2 vehicle/camptothecin viability	viability with camptothecin (% of control)	viability without drug (% of control)
CHRNA6 (cholinergic receptor nicotinic alpha 6 subunit)	1	-0.0827	41.7	39.4
CHRNA6 (cholinergic receptor nicotinic alpha 6 subunit)	2	-0.233	93.1	79.2
CHRNA6 (cholinergic receptor nicotinic alpha 6 subunit)	3	-0.0458	108	105
CHRNA6 (cholinergic receptor nicotinic alpha 6 subunit)	4	-0.00343	88	87.8
ROCK1 (Rho associated coiled-coil containing protein kinase 1)	1	-0.275	132	109
ROCK1 (Rho associated coiled-coil containing protein kinase 1)	2	-0.277	97.9	80.7
ROCK1 (Rho associated coiled-coil containing protein kinase 1)	3	-0.043	90	87.3
ROCK1 (Rho associated coiled-coil containing protein kinase 1)	4	-0.0116	75	74.4
PDIK1L (PDLIM1 interacting kinase 1 like)	1	-0.312	138	111
PDIK1L (PDLIM1 interacting kinase 1 like)	2	-0.219	132	114
PDIK1L (PDLIM1 interacting kinase 1 like)	3	-0.102	87.9	81.9
PDIK1L (PDLIM1 interacting kinase 1 like)	4	-0.0379	68.7	66.9

2 consecutive reagents already listed:
target gene	reagent	log2 vehicle/camptothecin viability	viability with camptothecin (% of control)	viability without drug (% of control)
CHRNA6 (cholinergic receptor nicotinic alpha 6 subunit)	2	-0.233	93.1	79.2
CHRNA6 (cholinergic receptor nicotinic alpha 6 subunit)	3	-0.0458	108	105

Continued:
target gene	reagent	log2 vehicle/camptothecin viability	viability with camptothecin (% of control)	viability without drug (% of control)
IL12RB1 (interleukin 12 receptor subunit beta 1)	1	-0.439	69.6	51.3
IL12RB1 (interleukin 12 receptor subunit beta 1)	2	-0.0257	98.8	97.1
IL12RB1 (interleukin 12 receptor subunit beta 1)	3	-0.139	75.9	69
IL12RB1 (interleukin 12 receptor subunit beta 1)	4	-0.268	112	92.6
OR5V1 (olfactory receptor family 5 subfamily V member 1)	1	-0.276	80.5	66.5
OR5V1 (olfactory receptor family 5 subfamily V member 1)	2	-0.108	100	93
OR5V1 (olfactory receptor family 5 subfamily V member 1)	3	-0.347	78	61.3
OR5V1 (olfactory receptor family 5 subfamily V member 1)	4	-0.452	95.7	70
ABCC6 (ATP binding cassette subfamily C member 6)	1	0.0584	65.6	68.3
ABCC6 (ATP binding cassette subfamily C member 6)	2	-0.256	48.4	40.5
ABCC6 (ATP binding cassette subfamily C member 6)	3	-0.214	89.5	77.2
ABCC6 (ATP binding cassette subfamily C member 6)	4	-0.713	14.3	8.75
CAMKV (CaM kinase like vesicle associated)	1	-0.37	70.2	54.3
CAMKV (CaM kinase like vesicle associated)	2	-0.345	129	101
CAMKV (CaM kinase like vesicle associated)	3	-0.522	42.6	29.7
CAMKV (CaM kinase like vesicle associated)	4	-0.366	76.6	59.5
